Test results: patent US20050143321A1, “Composition with stabilized redox properties and method of stabilization of redox properties” (priority 2002, published 2005)
At least one compound was matched to its structure with a doubt left.

System: Shigella sp.
Experiment: Sensitivity of bacteria to antibiotics dissolved in composition, diffusion into nutrient agar
Format: cell-based
Details: antibiotic dissolved in composition
Method: It was used the method of preparations diffusion into nutrient agar. […] It was used sterilized water with Eh=250 mV, SCE, pH=7.9 and mineralization 350 mg/l for control.

Structure (SMILES): NC[C@H]1O[C@H](O[C@H]2[C@H](O)[C@@H](O[C@H]3O[C@H](CO)[C@@H](O)[C@H](N)[C@H]3O)[C@H](N)C[C@@H]2N)[C@H](O)[C@@H](O)[C@@H]1O [Kanamycin]
- change of strain sensitivity: from medium sensitive to sensitive
